In the supplement of paper PMC4604168 (melanoma cell lines):
The list shows a part of the results. Repeats are few or missing, and single values can be far off.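 Cells were imaged in 1,536-well plates, and nuclei stained with an antibody against cleaved PARP were counted against all DNA-stained nuclei to give the apoptosis fraction. Screening doses were chosen to leave most cells alive, and resting and induced cleaved-PARP levels differ strongly between cell lines.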

Legend:
Experiment in all cases: cleaved PARP positive nuclei fraction relative to DMSO control; melanoma cells; higher = more apoptosis
Details in all cases: library dose: low library concentration; 72 h
[1] = test system: MZ2-MEL
[2] = test system: MeWo
[3] = test system: RPMI7951
[4] = test system: RVH-421
[5] = test system: SkMel28
[6] = test system: SkMel2
[7] = test system: SkMel30
[8] = test system: UACC62
[9] = test system: SkMel5
[10] = test system: UACC257

| SMILES | cleaved PARP positive nuclei fraction [1] | cleaved PARP positive nuclei fraction [2] | cleaved PARP positive nuclei fraction [3] | cleaved PARP positive nuclei fraction [4] | cleaved PARP positive nuclei fraction [5] | cleaved PARP positive nuclei fraction [6] | cleaved PARP positive nuclei fraction [7] | cleaved PARP positive nuclei fraction [8] | cleaved PARP positive nuclei fraction [9] | cleaved PARP positive nuclei fraction [10] |
| --- | --- | --- | --- | --- | --- | --- | --- | --- | --- | --- |
| CS(=O)(=O)c1ccc(C(=O)Nc2ccc(Cl)c(-c3ccccn3)c2)c(Cl)c1 [vismodegib] + COc1ccc(Cl)c(Nc2nc3ccccc3nc2NS(=O)(=O)c2cccc(NC(=O)C(C)(C)N)c2)c1 [XL147] (first compound 1 µM, partner dose 0.8 µM) | 161% | 46.1% | 88.2% | 98% | 89.5% | 23.6% | 57.6% | 94.5% | – | – |
| NC1(c2ccc(-c3nc4ccn5c(=O)[nH]nc5c4cc3-c3ccccc3)cc2)CCC1 + C[C@@H]1CCN(C(=O)CC#N)C[C@@H]1N(C)c1ncnc2[nH]ccc12 [CP690550] (first compound 0.4 µM, partner dose 1 µM) | 91.6% | 122% | 76.2% | 52.5% | 93.5% | 157% | 178% | 374% | 77.5% | 40.1% |
| CCCCCCCCc1ccc(CCC(N)(CO)CO)cc1 [fingolimod] + O=C(Nc1ccccc1)c1cc([N+](=O)[O-])ccc1Cl [GW9662] (first compound 2 µM, partner dose 2 µM) | 64.7% | 44.7% | 64.1% | 112% | 204% | 21.3% | 70.3% | 174% | 72.2% | 122% |
| Cn1sc(=O)n(Cc2ccccc2)c1=O + O=C(O)c1ccc2c(c1)nc(Nc1cccc(Cl)c1)c1ccncc12 [CX4945] (first compound 0.4 µM, partner dose 0.4 µM) | 182% | 143% | 165% | 164% | 126% | 36.5% | 70.1% | 121% | – | – |
| CC(=O)O[C@@]12CO[C@@H]1C[C@H](O)[C@@]1(C)C(=O)[C@H](O)C3=C(C)[C@@H](OC(=O)[C@H](O)[C@@H](NC(=O)OC(C)(C)C)c4ccccc4)C[C@@](O)([C@@H](OC(=O)c4ccccc4)[C@H]21)C3(C)C [Docetaxel] + COc1cc2c(Oc3ccc4[nH]c(C)cc4c3F)ncnc2cc1OCCCN1CCCC1 [cediranib] (first compound 0.0001 µM, partner dose 0.4 µM) | 860% | 324% | 174% | 68.1% | 195% | 522% | 188% | 590% | 160% | 421% |
| Cn1cnc2c(F)c(Nc3ccc(Br)cc3Cl)c(C(=O)NOCCO)cc21 [selumetinib] + CC(C)C[C@H](NC(=O)[C@H](Cc1ccccc1)NC(=O)c1cnccn1)B(O)O [Bortezomib] (first compound 0.015 µM, partner dose 0.001 µM) | 264% | 66.7% | 30.3% | 240% | 94.8% | 200% | 121% | 183% | – | – |
| CCCCCCCCc1ccc(CCC(N)(CO)CO)cc1 [fingolimod] + CS(=O)(=O)CCNCc1ccc(-c2ccc3ncnc(Nc4ccc(OCc5cccc(F)c5)c(Cl)c4)c3c2)o1 [lapatinib] (first compound 2 µM, partner dose 0.8 µM) | 128% | 106% | 95.3% | 131% | 95.7% | 30% | 21.3% | 80.6% | – | – |
| C[C@]1(O)C[C@@H](c2nc(-c3ccc4ccc(-c5ccccc5)nc4c3)c3c(N)nccn32)C1 + OCc1c[nH]c2ccccc12 [Indole-3-carbinol] (first compound 0.4 µM, partner dose 0.8 µM) | 127% | 42.7% | 169% | 50% | 87.8% | 156% | 148% | 131% | – | – |
| CC1(C)CCC(c2ccc(Cl)cc2)=C(CN2CCN(c3ccc(C(=O)NS(=O)(=O)c4ccc(N[C@H](CCN5CCOCC5)CSc5ccccc5)c(S(=O)(=O)C(F)(F)F)c4)cc3)CC2)C1 + CCCCCCCCc1ccc(CCC(N)(CO)CO)cc1 [fingolimod] (first compound 0.4 µM, partner dose 2 µM) | 243% | 681% | 196% | 674% | 84.2% | 101% | 97.5% | 129% | – | – |
| Cn1cnc2c(F)c(Nc3ccc(Br)cc3Cl)c(C(=O)NOCCO)cc21 [selumetinib] + Cn1c(=O)n(-c2ccc(C(C)(C)C#N)cc2)c2c3cc(-c4cnc5ccccc5c4)ccc3ncc21 [NVP-BEZ235] (first compound 0.015 µM, partner dose 0.004 µM) | 340% | 154% | 203% | 184% | 114% | 206% | 129% | 569% | – | – |
| CC(=O)O[C@@]12CO[C@@H]1C[C@H](O)[C@@]1(C)C(=O)[C@H](O)C3=C(C)[C@@H](OC(=O)[C@H](O)[C@@H](NC(=O)OC(C)(C)C)c4ccccc4)C[C@@](O)([C@@H](OC(=O)c4ccccc4)[C@H]21)C3(C)C [Docetaxel] + CCCS(=O)(=O)Nc1ccc(F)c(C(=O)c2c[nH]c3ncc(Cl)cc23)c1F [PLX4720] (first compound 0.0001 µM, partner dose 0.08 µM) | 915% | 440% | 198% | 309% | 593% | 448% | 415% | 756% | – | – |
| CS(=O)(=O)c1ccc(C(=O)Nc2ccc(Cl)c(-c3ccccn3)c2)c(Cl)c1 [vismodegib] + CC(C)C[C@H](NC(=O)[C@H](Cc1ccccc1)NC(=O)c1cnccn1)B(O)O [Bortezomib] (first compound 1 µM, partner dose 0.001 µM) | 85.8% | 89.7% | 66.1% | 203% | 41.7% | 86% | 99.2% | 37.5% | – | – |
| Cn1sc(=O)n(Cc2ccccc2)c1=O + Cn1c(Nc2ccc(C(F)(F)F)cc2)nc2cc(Oc3ccnc(-c4ncc(C(F)(F)F)[nH]4)c3)ccc21 [CHIR265] (first compound 0.4 µM, partner dose 0.08 µM) | 164% | 41.3% | 96.6% | 614% | 101% | 97.8% | 69% | 417% | – | – |
| Cn1cnc2c(F)c(Nc3ccc(Br)cc3Cl)c(C(=O)NOCCO)cc21 [selumetinib] + C[C@]1(c2nc3c(C(N)=O)cccc3[nH]2)CCCN1 [Veliparib] (first compound 0.015 µM, partner dose 1.4 µM) | 67.4% | 88.9% | 45.8% | 102% | 116% | 56.1% | 118% | 267% | – | – |
| NC1(c2ccc(-c3nc4ccn5c(=O)[nH]nc5c4cc3-c3ccccc3)cc2)CCC1 + Cn1c(=O)n(-c2ccc(C(C)(C)C#N)cc2)c2c3cc(-c4cnc5ccccc5c4)ccc3ncc21 [NVP-BEZ235] (first compound 0.4 µM, partner dose 0.004 µM) | 138% | 148% | 130% | 96.8% | 160% | 203% | 122% | 284% | – | – |
| NC(=O)c1ccc(N(C(N)=O)c2c(F)cccc2F)nc1-c1ccc(F)cc1F + CN1CCN(c2ccc3nc(-c4c(N)c5c(F)cccc5[nH]c4=O)[nH]c3c2)CC1 [Dovitinib] (first compound 0.4 µM, partner dose 0.1 µM) | 107% | 1230% | 177% | 95.5% | 46.8% | 106% | 191% | 166% | – | – |
| CC(=O)O[C@@]12CO[C@@H]1C[C@H](O)[C@@]1(C)C(=O)[C@H](O)C3=C(C)[C@@H](OC(=O)[C@H](O)[C@@H](NC(=O)OC(C)(C)C)c4ccccc4)C[C@@](O)([C@@H](OC(=O)c4ccccc4)[C@H]21)C3(C)C [Docetaxel] + Cn1c(Nc2ccc(C(F)(F)F)cc2)nc2cc(Oc3ccnc(-c4ncc(C(F)(F)F)[nH]4)c3)ccc21 [CHIR265] (first compound 0.0001 µM, partner dose 0.08 µM) | 341% | 2900% | 275% | 379% | 986% | 1580% | 544% | 1030% | – | – |
| CC1(C)CCC(c2ccc(Cl)cc2)=C(CN2CCN(c3ccc(C(=O)NS(=O)(=O)c4ccc(N[C@H](CCN5CCOCC5)CSc5ccccc5)c(S(=O)(=O)C(F)(F)F)c4)cc3)CC2)C1 + C[C@@H](Oc1cc(-c2cnn(C3CCNCC3)c2)cnc1N)c1c(Cl)ccc(F)c1Cl [Crizotinib] (first compound 0.4 µM, partner dose 0.2 µM) | 386% | 637% | 147% | 227% | 33.2% | 110% | 297% | 141% | – | – |
| CN(c1ncccc1CNc1nc(Nc2ccc3c(c2)CC(=O)N3)ncc1C(F)(F)F)S(C)(=O)=O + C[C@@H](Oc1cc(-c2cnn(C3CCNCC3)c2)cnc1N)c1c(Cl)ccc(F)c1Cl [Crizotinib] (first compound 0.08 µM, partner dose 0.2 µM) | 242% | 135% | 85.7% | 104% | 43.6% | 269% | 79.8% | 133% | – | – |
| CCCCCCCCc1ccc(CCC(N)(CO)CO)cc1 [fingolimod] + CCCS(=O)(=O)Nc1ccc(F)c(C(=O)c2c[nH]c3ncc(Cl)cc23)c1F [PLX4720] (first compound 2 µM, partner dose 0.08 µM) | 207% | 53.4% | 155% | 152% | 104% | 71.2% | 115% | 259% | – | – |
| CCCCCCCCc1ccc(CCC(N)(CO)CO)cc1 [fingolimod] + Cn1nnc2c(C(N)=O)ncn2c1=O [temozolomide] (first compound 2 µM, partner dose 2 µM) | 66.1% | 95% | 38.4% | 83.4% | 138% | 62.4% | 68.4% | 183% | – | – |
| COc1ccc(C2=N[C@@H](c3ccc(Cl)cc3)[C@@H](c3ccc(Cl)cc3)N2C(=O)N2CCNC(=O)C2)c(OC(C)C)c1 [Nutlin-3] + Nc1ncn([C@H]2C[C@H](O)[C@@H](CO)O2)c(=O)n1 [decitabine] (first compound 0.1 µM, partner dose 0.1 µM) | 140% | 97.6% | 124% | 65.9% | 476% | 130% | 158% | 85.1% | – | – |
| CC1(C)CCC(c2ccc(Cl)cc2)=C(CN2CCN(c3ccc(C(=O)NS(=O)(=O)c4ccc(N[C@H](CCN5CCOCC5)CSc5ccccc5)c(S(=O)(=O)C(F)(F)F)c4)cc3)CC2)C1 + CC(=O)O[C@@]12CO[C@@H]1C[C@H](O)[C@@]1(C)C(=O)[C@H](O)C3=C(C)[C@@H](OC(=O)[C@H](O)[C@@H](NC(=O)OC(C)(C)C)c4ccccc4)C[C@@](O)([C@@H](OC(=O)c4ccccc4)[C@H]21)C3(C)C [Docetaxel] (first compound 0.4 µM, partner dose 0.0001 µM) | 1330% | 2670% | 295% | 722% | 571% | 640% | 2210% | 433% | – | – |

In another format: results already given.
SMILES,cleaved PARP positive nuclei fraction [1],cleaved PARP positive nuclei fraction [2],cleaved PARP positive nuclei fraction [3],cleaved PARP positive nuclei fraction [4],cleaved PARP positive nuclei fraction [5],cleaved PARP positive nuclei fraction [6],cleaved PARP positive nuclei fraction [7],cleaved PARP positive nuclei fraction [8],cleaved PARP positive nuclei fraction [9],cleaved PARP positive nuclei fraction [10]
"NC1(c2ccc(-c3nc4ccn5c(=O)[nH]nc5c4cc3-c3ccccc3)cc2)CCC1 + C[C@@H]1CCN(C(=O)CC#N)C[C@@H]1N(C)c1ncnc2[nH]ccc12 [CP690550] (first compound 0.4 µM, partner dose 1 µM)",91.6%,122%,76.2%,52.5%,93.5%,157%,178%,374%,77.5%,40.1%
"CCCCCCCCc1ccc(CCC(N)(CO)CO)cc1 [fingolimod] + O=C(Nc1ccccc1)c1cc([N+](=O)[O-])ccc1Cl [GW9662] (first compound 2 µM, partner dose 2 µM)",64.7%,44.7%,64.1%,112%,204%,21.3%,70.3%,174%,72.2%,122%
